# From PubChem BioAssay AID540256 (National Center for Advancing Translational Sciences (NCATS), 2011)
# Hit rate of the full screen: of about 300,000 compounds, about 3,700 (1.2%) were called active. The inconclusive results got no clear call from the source; some entries with a clear call stand among them for comparison. Calls come from the whole dose curve; tested in HEK293 cells. A potency beside an inconclusive call is a rough fit, not a confirmed value.
# Assay: qHTS for Inhibitors of binding or entry into cells for Lassa Virus; note: nearly all actives have a fitted effect of over 50% in size
# Conditions: Lassa virus pseudotype entry inhibition, cell reporter; activity change, negative = inhibition: at 37.9 µM (top of the series) unless noted
# % is set by controls: 0 for no effect and ±100 for the full control effect; potency is the fitted concentration of half-maximal effect.
Structure (SMILES),Potency,"activity change, negative = inhibition"
O=C(Cn1c(=O)nc(-c2ccccc2F)c2cc(Cl)ccc21)NCCCc1ccccc1,"inconclusive: 12.6 µM [inhibitor, partial curve, poor fit]",–
Cc1ccc(Nc2ccc(C(=O)O)cc2N)cc1,"inconclusive: 0.58 µM [activator, full curve, poor fit]",–
CC(=O)Oc1c(C)cc(Cl)cc1C(=O)Nc1ccc([N+](=O)[O-])cc1Cl,active: 3.66 µM,–
Cc1nn(C)cc1C(=O)Nc1ccc2c(c1)OCCO2,–,inactive: 11.9%
O=C(COc1ccc(F)cc1)NCc1ccc2c(c1)CCN2C(=O)c1ccccc1,"inconclusive: 7.08 µM [inhibitor, full curve, poor fit]",–
Cc1c(C(=O)O/N=C(\N)c2ccccn2)cccc1[N+](=O)[O-],"inconclusive: 20 µM [inhibitor, single point]",–
Cc1cnc(NC(=O)Cc2c[nH]c3ccccc23)s1,"inconclusive: 16.4 µM [inhibitor, single point]",–
COc1cc(-c2ncc3ccccn23)cc(OC)c1OC,"inconclusive: 2.51 µM [inhibitor, partial curve, poor fit]",–
COc1ccc(-c2noc(C)c2-c2ccc3ccccc3n2)c(O)c1,"inconclusive: 25.1 µM [inhibitor, single point]",–
Cc1nnc(N/N=C/c2cc(C)n(-c3ccc(F)cc3)c2C)n1N,active: 7.08 µM,–
Cc1ccc2nc(Nc3nc(C)cc(-c4ccccc4)n3)[nH]c(=O)c2c1,"inconclusive: 32.6 µM [inhibitor, single point]",–
O=C(Nc1ccccn1)c1ccc(Cl)c(S(=O)(=O)N2CCCCCC2)c1,–,inactive: 24.6%
COc1cc(/C=C2\SC(=Nc3cccnc3)NC2=O)cc(OC)c1OC,"inconclusive: 35.5 µM [inhibitor, single point]",–
CC(=O)N1CCN(C(=O)c2ccc(-n3c(C)ccc3C)cc2)CC1,–,inactive: -12.3%
CCc1ccc(OCCCC(=O)O)c(Br)c1,"inconclusive: 13 µM [activator, partial curve]",–
CCOC(=O)c1cc(C(=O)NNC(=O)c2cccc([N+](=O)[O-])c2)c(C)nc1C,"inconclusive: 5.62 µM [inhibitor, single point]",–
CCOC(=O)n1c(=O)n(Cc2ccc(F)cc2)c2ccccc21,"inconclusive: 35.5 µM [inhibitor, single point]",–
CCOc1ccc(Nc2nn(-c3ccc(OC(F)(F)F)cc3)nc2C(C)=O)cc1,–,inactive: 15.2% [at 46.1 µM]
CCOC(=O)c1ccccc1OC(=O)NNc1ccccc1,"inconclusive: 3.55 µM [inhibitor, single point]",–
O=C(Nc1nc(-c2ccccc2)cs1)c1cccs1,"inconclusive: 1.26 µM [activator, single point]",–
CC(C(=O)N(C)C)N(C#N)c1nc(N(C)C)nc(N(C)C)n1 (stereo unspecified),–,inactive: 5.48%
Nc1nccc(-c2ccc(-n3cnc4ccccc43)cc2)n1,–,inactive: 22%
COc1cc(C(=O)NC(=S)Nc2ccc3c(c2)C(=O)N(C)C3=O)cc(OC)c1OC,–,inactive: 19.2%

Structure (SMILES),Potency,"activity change, negative = inhibition"
c1ccc2c(Nc3nc(N4CCOCC4)c4ccccc4n3)cccc2c1,"inconclusive: 35.5 µM [inhibitor, single point]",–
O=S(=O)(c1ccc(Cl)cc1Cl)n1ccnc1,–,inactive: 12.4% [at 46.1 µM]
O=C(CN(Cc1ccccc1Cl)C(=O)c1csnn1)NCc1ccccc1,"inconclusive: 5.62 µM [inhibitor, single point]",–
O=C(NCCc1c[nH]c2ccccc12)C1CCC(Cn2c(=S)[nH]c3ccccc3c2=O)CC1 (stereo unspecified),"inconclusive: 16.4 µM [inhibitor, partial curve, poor fit]",–
COC(CNC(=O)c1ccc2nc(-c3ccccc3)c(-c3ccccc3)nc2c1)OC,"inconclusive: 1.12 µM [inhibitor, full curve, poor fit]",–
CC(=O)Nc1ccc(-c2csc(N/N=C(/C)c3ccccc3)n2)cc1,"inconclusive: 39.8 µM [activator, partial curve, poor fit]",–
CCC(Sc1nc2ncccc2o1)C(=O)Nc1ccc(OC)c(OC)c1 (stereo unspecified),"inconclusive: 3.55 µM [activator, single point]",–
COC(=O)c1c(NC(=O)C2CCCO2)sc2c1CCC2 (stereo unspecified),–,inactive: -0.196%
O=P(CCC(F)(F)F)(CCC(F)(F)F)CCC(F)(F)F,–,inactive: 6.12%
CCC1CN(C(=O)N2CCC(C(=O)N3CCN(c4ccccc4F)CC3)CC2)c2ccccc2O1 (stereo unspecified),"inconclusive: 7.08 µM [activator, full curve, poor fit]",–
CCc1ccc(C(=O)NNc2ccccc2F)cc1,"inconclusive: 11.2 µM [inhibitor, partial curve, poor fit]",–
CCOc1c(Cl)cc(C(=O)N(Cc2ccc(N(C)C)cc2)Cc2ccco2)cc1Cl,"inconclusive: 2 µM [inhibitor, full curve]",–
CCOc1cc2c(cc1OCC)-n1cccc1C(c1ccc(OC)c(O)c1)NC2 (stereo unspecified),"inconclusive: 8.91 µM [inhibitor, partial curve, poor fit]",–
CC1CCN(CCCCOc2ccc(Br)cc2)CC1,–,inactive: 1.09%
CCCSc1nc(=O)n2cc(C)ccc2n1,"inconclusive: 3.26 µM [activator, single point]",–
CCc1nnc(NC(=O)c2cc(-c3ccccn3)nc3ccc(Br)cc23)s1,–,inactive: 2.55%
COc1ccc(CN(C)C(=O)c2cc(S(=O)(=O)N3CCOCC3)ccc2N2CCCC2)cc1,"inconclusive: 7.94 µM [inhibitor, partial curve]",–
Cc1ccc(S(=O)(=O)Nc2cccc(C(=O)NCC3CCCO3)c2)cc1F (stereo unspecified),–,inactive: 3.31%
Cc1ccc2c(c1)c1c3n2CCN(C(=O)c2cccc(C(F)(F)F)c2)C3CCC1 (stereo unspecified),–,inactive: -14.4% [at 46.1 µM]
Cc1cccc(CN2CCC(Oc3ccc(C(=O)N4CCCC4)cc3)CC2)n1,–,inactive: -0.251%
Cc1ccc(C(=O)Nc2nc3ccc(S(C)(=O)=O)cc3s2)cc1C,"inconclusive: 3.55 µM [activator, single point]",–
C(=N\Nc1nc2ccccc2[nH]1)/c1ccc2ncccc2c1,"inconclusive: 3.98 µM [inhibitor, full curve, poor fit]",–
Cc1cc(C(=O)COC(=O)C2=COCCO2)c(C)n1-c1ccccc1,active: 2.24 µM,–

# A draw from above in order of length of the SMILES, rising.
Structure (SMILES),Potency,"activity change, negative = inhibition"
O=P(CCC(F)(F)F)(CCC(F)(F)F)CCC(F)(F)F,–,inactive: 6.12%
C(=N\Nc1nc2ccccc2[nH]1)/c1ccc2ncccc2c1,"inconclusive: 3.98 µM [inhibitor, full curve, poor fit]",–
O=C(NCCc1c[nH]c2ccccc12)C1CCC(Cn2c(=S)[nH]c3ccccc3c2=O)CC1 (stereo unspecified),"inconclusive: 16.4 µM [inhibitor, partial curve, poor fit]",–
